Experimental data taken from patent US20250129150A1.
No constants are given. Whether binding was seen depends on the method and setting. Some binding calls cover weakened binding; strength is not graded here.

B1: Construct 139 (antibody, human IgG4, kappa)
heavy: EVQLLESGGGLVQPGGSLRLSCAASGFSLNAYSVNWVRQAPGKGLEWLGMIWGDGKIVYNSALKSRLTISKDSSKNTVYLQMNSLRAEDTAVYYCAGDGYYPYAMDNWGQGTTVTVSSASTKGPSVFPLAPCSRSTSESTAALGCLVKDYFPEPVTVSWNSGALTSGVHTFPAVLQSSGLYSLSSVVTVPSSSLGTKTYTCNVDHKPSNTKVDKRVESKYGPPCPSCPAPEFLGGPSVFLFPPKPKDTLMISRTPEVTCVVVDVSQEDPEVQFNWYVDGVEVHNAKTKPREEQFNSTYRVVSVLTVLHQDWLNGKEYKCKVSNKGLPSSIEKTISKAKGQPREPQVYTLPPSQEEMTKNQVSLTCLVKGFYPSDIAVEWESNGQPENNYKTTPPVLDSDGSFFLYSRLTVDKSRWQEGNVFSCSVLHEALHSYTQKSLSLSLGK
light: DIQLTQSPSSLSASVGDRVTITCRASKSVDSYGNSFMHWYQQKPGKAPKLLIYLASELESGVPSRFSGSGSGTDFTLTISSLQPEDFATYYCQQNNEDPRTFGGGTKVEIKRTVAAPSVFIFPPSDEQLKSGTASVVCLLNNFYPREAKVQWKVDNALQSGNSQESVTEQDSKDSTYSLSSTLTLSKADYEKHKVYACEVTHQGLSSPVTKSFNRGEC
B2: Construct 143 (antibody, human IgG4, kappa)
heavy: EVQLQESGPGLVKPSETLSLTCTVSGFSLNAYSVNWIRQPPGKGLEWLGMIWGDGKIVYNSALKSRLTISKDSSKNQVSLKLSSVTAADTAVYYCAGDGYYPYAMDNWGQGTTVTVSSASTKGPSVFPLAPCSRSTSESTAALGCLVKDYFPEPVTVSWNSGALTSGVHTFPAVLQSSGLYSLSSVVTVPSSSLGTKTYTCNVDHKPSNTKVDKRVESKYGPPCPSCPAPEFLGGPSVFLFPPKPKDTLMISRTPEVTCVVVDVSQEDPEVQFNWYVDGVEVHNAKTKPREEQFNSTYRVVSVLTVLHQDWLNGKEYKCKVSNKGLPSSIEKTISKAKGQPREPQVYTLPPSQEEMTKNQVSLTCLVKGFYPSDIAVEWESNGQPENNYKTTPPVLDSDGSFFLYSRLTVDKSRWQEGNVFSCSVLHEALHSYTQKSLSLSLGK
light: B1 light

Molecular target: Recombinant Cynomolgus IL-13 Protein, His Tag (SINO BIOLOGICAL, Cat. 11057-C07H) (cynomolgus monkey)
Test: SPR

Row | Binder | binding
1 | B1 | binds
2 | B2 | binds
